PubChem BioAssay AID1259308 – NCATS – 2017
Aim: 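Knock-downs that increase output of a recombinant reporter protein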 (primary screen). Cell system: human HEK293 embryonic kidney cells stably expressing firefly luciferase (HEK-CMV-Luc2-Hygro). Reagent: single siRNA against human genes, 0.8 pmol siRNA per well. Time to read-out: 72 h. Read-out: 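Luciferase light (ONE-Glo) measured on one replicate plate set and viability (CellTiter-Glo) on the other, scaled to a negative control siRNA, with robust z-scores and luciferase per cell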. Scale: total luciferase, z-score and total luciferase, % of control: higher = more reporter protein produced. Hit rule: 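An siRNA counts as active if its total luciferase robust z-score exceeds 3; genes with two or more such siRNAs out of three were retested with fresh siRNAs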. Meaning of the calls: active = raised luciferase; inactive = no rise.
Here is one part, drawn at random, of about 59,000 deposited reagents. About 1,510 of all reagents (2.6%) were called active. 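Calls use total luciferase alone and ignore viability, so some active siRNAs may act by altering cell number.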 A number with no mark means an inactive call. The numbers tell different reagents against one gene apart. Not all columns of the deposit are shown. No sequences are given here.

The opening 2 entries, ahead of the listing:
OR6K2 #1 — total luciferase, z-score = 0.128; total luciferase, % of control = 84.4
OR6K2 #2 — total luciferase, z-score = -1.4; total luciferase, % of control = 54

Results, from the first entry:
OR6K2 #1 — total luciferase, z-score = 0.128; total luciferase, % of control = 84.4
OR6K2 #2 — total luciferase, z-score = -1.4; total luciferase, % of control = 54
OR6K2 #3 — total luciferase, z-score = 1.3; total luciferase, % of control = 108
MAPK8IP2 #1 — total luciferase, z-score = 0.224; total luciferase, % of control = 86.3
MAPK8IP2 #2 — total luciferase, z-score = -0.0945; total luciferase, % of control = 80
MAPK8IP2 #3 — total luciferase, z-score = -1.64; total luciferase, % of control = 49.3
TEAD3 #1 — total luciferase, z-score = 1.04; total luciferase, % of control = 103
TEAD3 #2 — total luciferase, z-score = -0.381; total luciferase, % of control = 74.3
TEAD3 #3 — total luciferase, z-score = -1.9; total luciferase, % of control = 44.1
TASL #1 — total luciferase, z-score = -0.826; total luciferase, % of control = 65.5
TASL #2 — total luciferase, z-score = -0.0414; total luciferase, % of control = 81.1
TASL #3 — total luciferase, z-score = 0.21; total luciferase, % of control = 86.1
